# PubChem BioAssay AID720505 – Drosophila RNAi Screening Center – 2013
# Assay: 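Genes needed for store-operated calcium entry in fly cells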 (primary screen)
# System: Drosophila S2R+ cells
# Knock-down reagent: long dsRNA against Drosophila genes
# Treatment: thapsigargin (2 µM) in calcium-free buffer to empty internal stores, then 2 mM calcium added back
# Measurement: 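Stores emptied by 2 µM thapsigargin without calcium, then 2 mM calcium re-added; fluo-4 fluorescence followed by FLIPR in 384-well plates, per-well averaged endpoint, raw; two screen passes, some wells retested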
# Direction: calcium signal and retest calcium signal: higher = more calcium entry after store depletion
# Rule for the call: 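About 1500 genes called as lowering calcium entry, by varying amounts, judged against per-plate control wells with STIM1 as positive and Rho1 as negative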
# Meaning of the calls: active = called as lowering calcium entry; inactive = not called
# The deposit covers about 20,000 reagents; this is a random part of those that have a named target and a result. Of all reagents, about 2,100 (10%) are marked active. 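Raw plate signals without normalisation; calls rest on control-based scores that were not deposited; replicate 2 separates called from uncalled poorly.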 A plus sign joins genes that one reagent is predicted to hit. The record does not give: the amount of reagent, the time to read-out.
gene,DRSC id,"calcium signal, replicate 1","calcium signal, replicate 2","retest calcium signal, replicate 1","retest calcium signal, replicate 2",call
Cyp4g15 (GeneID 32093),DRSC20240,71.9,96,,,inactive
Pros28.2 (retired record) (GeneID 5657117),DRSC16800,133,184,,,inactive
CG9107 (GeneID 33843),DRSC03138,87.8,193,,,inactive
CG7080 (GeneID 42609),DRSC16193,169,213,,,inactive
CG13516 (GeneID 3885599),DRSC04159,97.7,140,,,inactive
Mp (GeneID 38769),DRSC10193,159,97,92.1,114,inactive
Mp (GeneID 38769),DRSC11029,93.7,82.1,,,inactive
Mp (GeneID 38769),DRSC11030,113,92,,,inactive
obst-B (GeneID 34336),DRSC01987,109,99.2,,,inactive
RpL23A (GeneID 38208),DRSC08694,136,84.8,,,inactive
RpL23A (GeneID 38208),DRSC22035,96.7,244,,,inactive
Use1 (GeneID 39051),DRSC10180,92.2,99.3,,,inactive
Rpt1 (GeneID 35701),DRSC07542,91.4,71.2,,,inactive
Ir60d (GeneID 7354402),DRSC04218,121,188,,,inactive
CG31924 (GeneID 319030),DRSC00689,180,137,,,inactive
CG7049 (GeneID 38022),DRSC08587,193,97.1,,,inactive
Gr93c (GeneID 117471),DRSC14587,237,180,,,inactive
CG15249 (GeneID 31924),DRSC17978,139,109,,,inactive
CG5445 (GeneID 32722),DRSC19943,78.8,133,,,inactive
CG5445 (GeneID 32722),DRSC23180,113,118,,,inactive
Coop (GeneID 35677),DRSC06604,145,114,,,inactive
CG31199 (GeneID 42456),DRSC15284,171,317,,,inactive
Pfdn1 (GeneID 33857),DRSC02325,146,89.9,,,inactive
Ak3 (GeneID 41318),DRSC16075,173,88.9,,,inactive
kar (GeneID 45883),DRSC14496,115,112,,,inactive
Cpr50Cb (GeneID 36525),DRSC06975,102,190,,,inactive
flz (GeneID 35902),DRSC07109,105,123,,,inactive
CG14518 (GeneID 43421),DRSC14870,140,150,,,inactive
CG6749 (GeneID 39144),DRSC10704,103,115,,,inactive
bocks (GeneID 41162),DRSC16489,91.1,142,,,inactive
CG42516 + Pbp49,DRSC06073,197,176,,,inactive
CG14135 (GeneID 39316),DRSC10140,46,56.2,,,active
CG7091 (GeneID 41590),DRSC16197,102,99.9,,,inactive
CG11920 (GeneID 43009),DRSC14439,182,240,,,inactive
Spindly (GeneID 33578),DRSC00430,55.5,121,,,active
rnh1 (GeneID 35746),DRSC07673,84.1,122,,,inactive
CG9500 (GeneID 33888),DRSC03237,69.9,184,,,active
Rad23 (GeneID 43785),DRSC17167,121,160,,,inactive
asRNA:CR30267 + CG42260,DRSC03953,184,15916,,,inactive
MRP (GeneID 34686),DRSC02942,199,185,,,inactive
Amy-d (GeneID 36932),DRSC05919,133,143,,,inactive
Gem2 (GeneID 40087),DRSC09721,149,79,,,inactive
CYTB (retired record) (GeneID 192472),DRSC21272,180,84.6,,,inactive
CG9632 (GeneID 41926),DRSC16528,159,283,,,inactive
Atg10 (GeneID 50253),DRSC06172,62.9,77.1,,,active
Rm62 (GeneID 40739),DRSC12365,146,160,,,inactive
Cyp6t2Psi (GeneID 3772355),DRSC01840,3543,82.7,,,inactive
CkIalpha (GeneID 32221),DRSC20231,81.3,96.9,,,inactive
CkIalpha (GeneID 32221),DRSC22609,117,164,,,inactive
CkIalpha (GeneID 32221),DRSC23308,78,117,,,inactive
Prp19 (GeneID 37123),DRSC07434,153,195,,,inactive
Cyp6a13 (GeneID 35837),DRSC07375,180,95,,,inactive
CG7407 (GeneID 40430),DRSC11824,119,116,,,inactive
Cyp301a1 (GeneID 36378),DRSC07365,140,273,,,inactive
LpR1 (GeneID 2768687),DRSC15665,109,94.6,,,inactive
LpR1 (GeneID 2768687),DRSC15669,144,133,,,inactive
LpR1 (GeneID 2768687),DRSC15670,155,121,,,inactive
ninaA (GeneID 33271),DRSC00830,110,164,,,inactive
CG34160 (GeneID 5740175),DRSC01131,214,123,,,inactive
CG15531 (GeneID 43592),DRSC15068,84.6,85.9,,,inactive
CG31698 (GeneID 318888),DRSC22226,110,199,,,inactive
EMC8-9 (GeneID 37635),DRSC04380,144,80.9,,,inactive
CG15333 (GeneID 31720),DRSC18016,177,116,,,inactive
CG15333 (GeneID 31720),DRSC18153,179,134,,,inactive
Secp43 (GeneID 33652),DRSC00454,109,129,,,inactive
aPKC (GeneID 47594),DRSC05515,70.9,126,,,inactive
aPKC (GeneID 47594),DRSC07639,99.6,155,,,inactive
Cpr65Ay (GeneID 5740348),DRSC08796,,,,,inactive
CG32199 (GeneID 40028),DRSC09990,93.8,137,,,inactive
cGlr2 (GeneID 246606),DRSC04017,79.4,58.6,,,active
hfp (GeneID 38173),DRSC08731,54.4,81.8,,,active
hfp (GeneID 38173),DRSC08732,97.8,65.6,,,inactive
hfp (GeneID 38173),DRSC22408,99.4,196,,,inactive
CG10147 (GeneID 38733),DRSC09706,94.3,68.3,,,inactive
CG8526 (GeneID 41208),DRSC16438,145,79.6,,,inactive
CG15480 (GeneID 34723),DRSC02490,85,148,,,inactive
CG31272 (GeneID 326130),DRSC16058,168,115,,,inactive
Dic3 (GeneID 35763),DRSC06058,104,89.9,,,inactive
RpS16 (GeneID 37580),DRSC04442,44.8,142,,,active
CG15544 (GeneID 43655),DRSC15082,170,163,,,inactive
mRpS26 (GeneID 40001),DRSC10823,102,165,,,inactive
N (GeneID 31293),DRSC18685,95.9,118,,,inactive
CR31032 (GeneID 5740822),DRSC22457,130,146,,,inactive
